Source: PubChem BioAssay AID602196 (INSERM, 2012)
Purpose: 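Knock-downs that protect lung cancer cells from cisplatin or sensitise them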. Cells: human A549 lung cancer cells. Reagent: siRNA pair against human genes. Timing: 48 h transfection before cisplatin; time from cisplatin to read-out not stated. Challenge: cisplatin at a dose killing half of control-siRNA cells; exact dose and duration not given. Read-out: 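Shift in cisplatin death relative to control siRNA, from -50 (all cells die) to +50 (no cells die); siRNAs harmful on their own scored 0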. Direction: two-siRNA summed score (-2 to +2): higher = both siRNAs protect from cisplatin killing; -2 means both sensitise; mean protection from cisplatin (shift in death) and protection from cisplatin (shift in death), siRNA C: higher = protection from cisplatin killing. Rule for the call: 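siRNAs harmful alone (LDH or WST-1) get 0; others get +1 for less and -1 for more cisplatin killing; genes are active when the two siRNAs give the same sign, summing to ±2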. Calls: active = both siRNAs shift cisplatin killing the same way; inactive = no consistent shift, or siRNA harmful alone.
Shown is an unselected part of about 23,000 reagents tested. Over the whole deposit, 455 (2%) got an active call. 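Active includes both protection and sensitisation; some change values fall well beyond the stated -50 to +50 range.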 Not all columns of the deposit are shown. Not given: the amount of reagent.

The opening 2 records, ahead of the listing:
no.	target	two-siRNA summed score (-2 to +2)	mean protection from cisplatin (shift in death) (%)	protection from cisplatin (shift in death), siRNA C (%)	call
1	GPR17 (G protein-coupled receptor 17)	0	3.4	-5.5	inactive
2	ELOA2 (elongin A2)	0	-0.4	11.6	inactive

Results, from the start:
no.	target	two-siRNA summed score (-2 to +2)	mean protection from cisplatin (shift in death) (%)	protection from cisplatin (shift in death), siRNA C (%)	call
1	GPR17 (G protein-coupled receptor 17)	0	3.4	-5.5	inactive
2	ELOA2 (elongin A2)	0	-0.4	11.6	inactive
3	PFKFB3 (6-phosphofructo-2-kinase/fructose-2,6-biphosphatase 3)	0	-5.2	-3	inactive
4	XYLT2 (xylosyltransferase 2)	1	6	-5	inactive
5	PRSS45P (serine protease 45, pseudogene)	0	11	13.1	inactive
6	TCN2 (transcobalamin 2)	0	11.7	11.7	inactive
7	LOC400156	0	14.9	25.7	inactive
8	PRKCB (protein kinase C beta)	1	4.7	13.4	inactive
9	PCNX1 (pecanex 1)	0	-3.1	-4.9	inactive
10	OR4K5 (olfactory receptor family 4 subfamily K member 5)	-1	-11.9	-26.7	inactive
11	TTC29 (tetratricopeptide repeat domain 29)	1	5	15.7	inactive
12	LINC00324 (long independently transcribed non-coding RNA 324)	1	1.5	-13.8	inactive
13	OAZ3 (ornithine decarboxylase antizyme 3)	0	-0.1	-9.8	inactive
14	CHMP2B (charged multivesicular body protein 2B)	0	-4.3	1.8	inactive
15	CUL4B (cullin 4B)	0	-0.3	8.3	inactive
16	LOC441032	0	5.8	13.2	inactive
17	YES1 (YES proto-oncogene 1, Src family tyrosine kinase)	0	3.2	11.3	inactive
18	ZBTB11 (zinc finger and BTB domain containing 11)	-1	-2.3	8.7	inactive
19	ZKSCAN1 (zinc finger with KRAB and SCAN domains 1)	1	14.4	9.6	inactive
20	ATP5MC3 (ATP synthase membrane subunit c locus 3)	0	16.5	36.4	inactive
21	SLC2A12	0	-0.7	-2	inactive
22	RHOF (ras homolog family member F, filopodia associated)	0	-10.1	-18.8	inactive
23	LOC400943 (retired record)	0	8.5	10.6	inactive
